Experimental data taken from patent US9868767B2, “Chemical synthesis and screening of bicyclic peptide libraries” (OHIO STATE INNOVATION FOUNDATION, priority 2013, dated 2018).
Not every detail of the peptide structures is certain; ends, links or a residue may be inferred. *1 amine or outer side, *2 acyl side, *3 side chain or, on linkers, in order; H or OH if unused. Where a SMILES comes first, the peptide text is derived from it. Bridges are numbered along the chain shown (N, C = ends). [ ]: non-standard residue; d: D form. The star is where a group is joined. FITC = O=C1OC2(c3ccc(O)cc3Oc3cc(O)ccc32)c2ccc(NC(=S)*)cc21; Trimesoyl = O=C(c1cc(C(=O)[*:2])cc(C(=O)[*:3])c1)[*:1]; Phe(4-F) = N[C@@H](Cc1ccc(F)cc1)C(=O)O; d2Nal = N[C@H](Cc1ccc2ccccc2c1)C(=O)O; Dap = NC[C@H](N)C(=O)O

By UniProt entry, the sequences of proteins in these tests, tags left out.
UniProt P62942, whole entry: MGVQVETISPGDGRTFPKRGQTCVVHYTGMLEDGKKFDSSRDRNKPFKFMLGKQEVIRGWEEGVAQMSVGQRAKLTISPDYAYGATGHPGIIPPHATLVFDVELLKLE

Key:
[1] = biological target: GST-FKBP12 fusion protein (Homo sapiens, UniProt P62942); assay: FA binding to GST-FKBP12
K-Ras = K-Ras (Homo sapiens, UniProt P01116); assay: FA binding to K-Ras (Example 2 library hits); conditions: FITC-labeled, recombinant K-Ras; NA = no significant binding activity; read-out: KD of resynthesized peptide for K-Ras

Row | SMILES | binding to GST-FKBP12 [1] | Kd (K-Ras) [nM]
1 | NC(=O)C[C@H]1NC(=O)[C@@H](Cc2ccccc2)NC(=O)[C@@H]2CCCCNC(=O)c3cc(cc(c3)C(=O)N[C@@H](Cc3c[nH]c4ccccc34)C(=O)N[C@H](Cc3ccccc3)C(=O)N[C@@H](CC(=O)O)C(=O)N2)C(=O)NC[C@@H](C(=O)N[C@@H](CCCCNC(=S)Nc2ccc3c(c2)C(=O)OC32c3ccc(O)cc3Oc3cc(O)ccc32)C(N)=O)NC(=O)[C@H](Cc2c[nH]cn2)NC1=O [Hit 38, Trp-phe-Asp-Lys-phe-asn-His-Dap] | no binding | 
2 | N=C(N)NCCC[C@@H]1NC(=O)c2cc3cc(c2)C(=O)NC[C@@H](C(=O)N[C@@H](CCCCNC(=S)Nc2ccc4c(c2)C(=O)OC42c4ccc(O)cc4Oc4cc(O)ccc42)C(N)=O)NC(=O)CNC(=O)[C@@H](CCC(=O)O)NC(=O)[C@@H](Cc2ccccc2)NC(=O)[C@H](CCCCNC3=O)NC(=O)[C@H](Cc2ccc(F)cc2)NC(=O)[C@H](CCCNC(=N)N)NC(=O)[C@@H](Cc2ccc3ccccc3c2)NC(=O)[C@H](CCCNC(=N)N)NC1=O [Peptide 105A] (RR[d2Nal]R[Phe(4-F)]K[dF][dE]G[Dap]K(FITC)-NH2; linker N-6-10 via Trimesoyl) |  | 1400 ± 400
